Test results published in PubChem BioAssay AID256 (DTP/NCI, 2004).
The list is a part of this screen's results and no random one: its compounds were picked by chemical class. Not every dose and run of a compound is shown. T/C: endpoint of the treated group in % of that of the vehicle group. Some doses have a count of surviving animals in place of a T/C: the source holds a T/C of zero for them, seemingly a mark for toxic or unscored doses. Counts of survivors are from the toxicity check (mostly the fifth day) where no day follows; animals may have died later. Schedules are NCI's codes, taken here to give the interval after Q, in days (D) or hours (H), and the number of doses after X. Some complexes appear as separate parts, the way the source draws them; their charges need not add up. For survival time, the PubChem record calls one and a half times the control and up active, and a quarter to a half above the control has no call in these data; cut-offs in other NCI protocols can differ. Some doses were run more than once; the values are given in rising order. Some entries show no survivor count and are marked so; the dose need not have been tolerated. Some T/C values carry the count of animals alive at the toxicity check (mostly the fifth day); without a count or a note in brackets, all were alive then.

Tested on: CD2F1 mice, L1210 leukemia ip, survival T/C
Assay: NCI In Vivo Anticancer Drug Screen. Data for tumor model L1210 Leukemia (intraperitoneal) in CD2F1 (CDF1) mice
Conditions: higher T/C = longer survival
How it was run: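 Ratio T/C, where T is the treated-group value and C the vehicle-dosed control value, from mice implanted with a transplantable tumor.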

[1] = T/C endpoint: mean survival time, dose: 100.0 mg/kg/injection, schedule: Q01DX001 (ip), vehicle: saline with Tween-80
[2] = T/C endpoint: mean survival time, dose: 200.0 mg/kg/injection, schedule: Q01DX001 (ip), vehicle: saline with Tween-80
[3] = T/C endpoint: mean survival time, dose: 400.0 mg/kg/injection, schedule: Q01DX001 (ip), vehicle: saline with Tween-80
[4] = T/C endpoint: mean survival time, dose: 25.0 mg/kg/injection, schedule: Q04DX002 (ip), vehicle: saline with Tween-80
[5] = T/C endpoint: mean survival time, dose: 50.0 mg/kg/injection, schedule: Q04DX002 (ip), vehicle: saline with Tween-80
[6] = T/C endpoint: mean survival time, dose: 50.0 mg/kg/injection, schedule: Q01DX009 (ip), vehicle: saline with Tween-80
[7] = T/C endpoint: mean survival time, dose: 62.5 mg/kg/injection, schedule: Q01DX001 (ip), vehicle: other
[8] = T/C endpoint: mean survival time, dose: 125.0 mg/kg/injection, schedule: Q01DX001 (ip), vehicle: other
[9] = T/C endpoint: mean survival time, dose: 250.0 mg/kg/injection, schedule: Q01DX001 (ip), vehicle: other
[10] = T/C endpoint: mean survival time, dose: 500.0 mg/kg/injection, schedule: Q01DX001 (ip), vehicle: other
[11] = T/C endpoint: mean survival time, dose: 100.0 mg/kg/injection, schedule: Q04DX003 (ip), vehicle: saline with Tween-80
[12] = T/C endpoint: mean survival time, dose: 200.0 mg/kg/injection, schedule: Q04DX003 (ip), vehicle: saline with Tween-80
[13] = T/C endpoint: mean survival time, dose: 200.0 mg/kg/injection, schedule: Q01DX001 (ip), vehicle: DMSO
[14] = T/C endpoint: mean survival time, dose: 400.0 mg/kg/injection, schedule: Q01DX001 (ip), vehicle: DMSO
[15] = T/C endpoint: mean survival time, dose: 6.25 mg/kg/injection, schedule: Q01DX009 (ip), vehicle: saline with Tween-80
[16] = T/C endpoint: mean survival time, dose: 12.5 mg/kg/injection, schedule: Q01DX009 (ip), vehicle: saline with Tween-80
[17] = T/C endpoint: mean survival time, dose: 25.0 mg/kg/injection, schedule: Q01DX009 (ip), vehicle: saline with Tween-80
[18] = T/C endpoint: mean survival time, dose: 100.0 mg/kg/injection, schedule: Q04DX002 (ip), vehicle: saline with Tween-80

Compound: Clc1ccc(P(Cl)Cl)cc1
- T/C (T/C endpoint: mean survival time, dose: 10.0 mg/kg/injection, schedule: Q01DX001 (ip), vehicle: saline with Tween-80): 103 % of control
- T/C (T/C endpoint: mean survival time, dose: 20.0 mg/kg/injection, schedule: Q01DX001 (ip), vehicle: saline with Tween-80): 95 % of control
- T/C (T/C endpoint: mean survival time, dose: 40.0 mg/kg/injection, schedule: Q01DX001 (ip), vehicle: saline with Tween-80): 103 % of control
- survivor count [1]: 3 of 6
- survivor count [2]: 1 of 6
- survivor count [3]: 0 of 6

Compound: CCP1(=O)Nc2ccccc2N1C (configuration not stated)
- T/C (T/C endpoint: mean survival time, dose: 12.5 mg/kg/injection, schedule: Q04DX002 (ip), vehicle: saline with Tween-80): 93 % of control [survivor count not shown]
- T/C [4]: 104 % of control [survivor count not shown]
- T/C [5]: 93 % of control [survivor count not shown]

Compound: CC(C)(COP(=O)(OCC(C)(C)[N+](=O)[O-])OCC(C)(C)[N+](=O)[O-])[N+](=O)[O-]
- T/C [6]: 96 % of control
- T/C (T/C endpoint: mean survival time, dose: 100.0 mg/kg/injection, schedule: Q01DX009 (ip), vehicle: saline with Tween-80): 96 % of control
- T/C (T/C endpoint: mean survival time, dose: 200.0 mg/kg/injection, schedule: Q01DX009 (ip), vehicle: saline with Tween-80): 100 % of control

Compound: CCOC(=O)C1COP(=O)(N(CCCl)CCCl)N1 (configuration not stated)
- T/C [7]: 99 % of control
- T/C [8]: 99 % of control
- T/C (T/C endpoint: mean survival time, dose: 220.0 mg/kg/injection, schedule: Q01DX001 (ip), vehicle: other): 105 % of control
- T/C [9]: 106 % of control
- T/C (T/C endpoint: mean survival time, dose: 330.0 mg/kg/injection, schedule: Q01DX001 (ip), vehicle: other): 123 % of control
- T/C [10]: 121 and 124 % of control
- T/C (T/C endpoint: mean survival time, dose: 750.0 mg/kg/injection, schedule: Q01DX001 (ip), vehicle: other): 129 % of control

Compound: CCC(CC)NC(CC)CO.O=[N+]([O-])c1cc([N+](=O)[O-])c(O)c([N+](=O)[O-])c1
- T/C (T/C endpoint: mean survival time, dose: 75.0 mg/kg/injection, schedule: Q01DX001 (ip), vehicle: other): 101 % of control [survivor count not shown]
- T/C (T/C endpoint: mean survival time, dose: 150.0 mg/kg/injection, schedule: Q01DX001 (ip), vehicle: other): 93 % of control [survivor count not shown]
- T/C (T/C endpoint: mean survival time, dose: 300.0 mg/kg/injection, schedule: Q01DX001 (ip), vehicle: other): 98 % of control [survivor count not shown]

Compound: CSc1ccc(Nc2c([N+](=O)[O-])cc([N+](=O)[O-])cc2[N+](=O)[O-])cc1
- T/C [11]: 89 % of control
- T/C [12]: 87 % of control
- T/C (T/C endpoint: mean survival time, dose: 400.0 mg/kg/injection, schedule: Q04DX003 (ip), vehicle: saline with Tween-80): 102 % of control

Compound: Cc1nc(N)[nH]c(=O)c1CCCNCc1cccnc1.O=[N+]([O-])c1cc([N+](=O)[O-])c(O)c([N+](=O)[O-])c1
- T/C (T/C endpoint: mean survival time, dose: 50.0 mg/kg/injection, schedule: Q01DX001 (ip), vehicle: saline with Tween-80): 101 % of control
- T/C [1]: 100 % of control
- T/C [2]: 97 % of control

Compound: O=P(OCCCO)(N(CCCl)CCCl)N1CC1 (configuration not stated)
- T/C (T/C endpoint: mean survival time, dose: 25.0 mg/kg/injection, schedule: Q01DX001 (ip), vehicle: DMSO, evaluated on day 35): 97 % of control
- T/C (T/C endpoint: mean survival time, dose: 25.0 mg/kg/injection, schedule: Q01DX001 (ip), vehicle: DMSO, evaluated on day 45): 111 % of control
- T/C (T/C endpoint: mean survival time, dose: 50.0 mg/kg/injection, schedule: Q01DX001 (ip), vehicle: DMSO, evaluated on day 35): 100 % of control
- T/C (T/C endpoint: mean survival time, dose: 50.0 mg/kg/injection, schedule: Q01DX001 (ip), vehicle: DMSO, evaluated on day 45): 138 % of control
- T/C (T/C endpoint: mean survival time, dose: 100.0 mg/kg/injection, schedule: Q01DX001 (ip), vehicle: DMSO, evaluated on day 35): 106 % of control
- T/C (T/C endpoint: mean survival time, dose: 100.0 mg/kg/injection, schedule: Q01DX001 (ip), vehicle: DMSO, evaluated on day 45): 156 % of control [5 of 6 alive]
- T/C [13]: 135 % of control
- survivor count [13]: 0 of 6
- T/C [14]: 131 % of control [5 of 6 alive]
- survivor count [14]: 0 of 6

Compound: [C-]#N.[C-]#N.[C-]#N.[C-]#N.[C-]#N.[C-]#N.[Co].c1ccc([I+]c2ccccc2)cc1
- survivor count (T/C endpoint: mean survival time, dose: 100.0 mg/kg/injection, schedule: Q01DX001 (ip), vehicle: saline): 1 of 6
- survivor count (T/C endpoint: mean survival time, dose: 200.0 mg/kg/injection, schedule: Q01DX001 (ip), vehicle: saline): 0 of 6
- survivor count (T/C endpoint: mean survival time, dose: 400.0 mg/kg/injection, schedule: Q01DX001 (ip), vehicle: saline): 0 of 6

Compound: NC(=O)N/N=C/CCOP(N)(=O)N(CCCl)CCCl (configuration not stated)
- T/C (T/C endpoint: mean survival time, dose: 10.94 mg/kg/injection, schedule: Q01DX001 (ip), vehicle: DMSO): 104 % of control
- T/C (T/C endpoint: mean survival time, dose: 21.88 mg/kg/injection, schedule: Q01DX001 (ip), vehicle: DMSO): 104 % of control
- T/C (T/C endpoint: mean survival time, dose: 43.75 mg/kg/injection, schedule: Q01DX001 (ip), vehicle: DMSO): 117 % of control
- T/C (T/C endpoint: mean survival time, dose: 87.5 mg/kg/injection, schedule: Q01DX001 (ip), vehicle: DMSO): 122 % of control
- T/C (T/C endpoint: mean survival time, dose: 175.0 mg/kg/injection, schedule: Q01DX001 (ip), vehicle: DMSO): 128 % of control
- T/C (T/C endpoint: mean survival time, dose: 350.0 mg/kg/injection, schedule: Q01DX001 (ip), vehicle: DMSO): 144 % of control
- T/C (T/C endpoint: mean survival time, dose: 700.0 mg/kg/injection, schedule: Q01DX001 (ip), vehicle: DMSO): 164 % of control

Compound: C1CN1
- T/C [15]: 102 % of control
- T/C [16]: 106 % of control [5 of 6 alive]
- T/C [17]: 120 % of control
- T/C [4]: 109 % of control
- survivor count [5]: 1 of 3
- survivor count [18]: 1 of 3

Compound: CCOP(C)(=O)OCCN(C)c1ccc([N+](=O)[O-])cc1 (configuration not stated)
- T/C [5]: 107 % of control [survivor count not shown]
- T/C [1]: 105 % of control [survivor count not shown]
- T/C [18]: 104 % of control [survivor count not shown]
- T/C [2]: 105 % of control [survivor count not shown]
- T/C (T/C endpoint: mean survival time, dose: 200.0 mg/kg/injection, schedule: Q04DX002 (ip), vehicle: saline with Tween-80): 104 % of control [survivor count not shown]
- T/C [3]: 100 % of control [survivor count not shown]

Compound: CC1CCCCN1.C[CH2][Sn]([Br])([CH2]C)[CH2]C
- T/C [15]: 100 % of control [5 of 6 alive]
- T/C [16]: 94 % of control
- survivor count [17]: 1 of 6
- survivor count (T/C endpoint: median survival time, dose: 25.0 mg/kg/injection, schedule: Q04DX002 (ip), vehicle: saline with Tween-80): 1 of 3
- survivor count (T/C endpoint: median survival time, dose: 50.0 mg/kg/injection, schedule: Q04DX002 (ip), vehicle: saline with Tween-80): 0 of 3
- survivor count (T/C endpoint: median survival time, dose: 100.0 mg/kg/injection, schedule: Q04DX002 (ip), vehicle: saline with Tween-80): 0 of 3

Compound: O=P1(N(CCCl)CCCl)Oc2ccccc2O1
- T/C [7]: 116 % of control
- T/C [8]: 118 % of control
- survivor count [9]: 3 of 6
- survivor count [10]: 1 of 6

Compound: NCCNCCCl
- T/C (T/C endpoint: mean survival time, dose: 50.0 mg/kg/injection, schedule: Q01DX009 (ip), vehicle: saline): 104 % of control
- T/C (T/C endpoint: mean survival time, dose: 100.0 mg/kg/injection, schedule: Q01DX009 (ip), vehicle: saline): 97 % of control
- T/C (T/C endpoint: mean survival time, dose: 200.0 mg/kg/injection, schedule: Q01DX009 (ip), vehicle: saline): 97 % of control
- T/C (T/C endpoint: mean survival time, dose: 400.0 mg/kg/injection, schedule: Q01DX009 (ip), vehicle: saline): 112 % of control

Compound: O=C1c2cc([N+](=O)[O-])cc([N+](=O)[O-])c2-c2c1cc([N+](=O)[O-])cc2[N+](=O)[O-]
- T/C [6]: 90 % of control [survivor count not shown]
- T/C [11]: 93 % of control [survivor count not shown]
- T/C [12]: 98 % of control [survivor count not shown]
